The experiment has as its system APPL1. The settings on record: HepG2, FIG. 2b.

Read-outs that look alike come from different tables or passages of the source.

In the case of `CC(=O)C1CC[C@H]2[C@@H]3CC=C4CC(O)CC[C@]4(C)[C@H]3[C@@H](O)C[C@]12C` (stereo partly drawn) [Compound 1039, 1-((8S,9S,10R,11S,13S,14S)-3,11-dihydroxy-10,13-dimethyl-2,3,4,- 7,8,9,10,11,12,13,14,15,16,17-tetradecahydro-1H-cyclopenta[a]-phenanthren-17-yl)ethanone], the “APPL1 activation and translocation to the nucleus” value was “activates APPL1 and causes its translocation to the nucleus”. Further, for the setting “listed as 11β-hydroxypregnenolone”, the “APPL1 activation and translocation to the nucleus” value is “activation APPL1 and translocation to the nucleus”.

(Values after patent publication US11542298B2, “Hydroxysteroid compounds, their intermediates, process of preparation, composition and uses thereof” (Epirium Bio Inc., priority 2014, dated 2023).)
